In PMC12140331:
Results are given in words; binding and its absence hold for the method and conditions named. Binding seen in cells or lysates may run through a third protein. Some entries that bind do so weakly or less than the wild type.

Amino acid sequences for entries named in this document (tags omitted).
UniProt P09086: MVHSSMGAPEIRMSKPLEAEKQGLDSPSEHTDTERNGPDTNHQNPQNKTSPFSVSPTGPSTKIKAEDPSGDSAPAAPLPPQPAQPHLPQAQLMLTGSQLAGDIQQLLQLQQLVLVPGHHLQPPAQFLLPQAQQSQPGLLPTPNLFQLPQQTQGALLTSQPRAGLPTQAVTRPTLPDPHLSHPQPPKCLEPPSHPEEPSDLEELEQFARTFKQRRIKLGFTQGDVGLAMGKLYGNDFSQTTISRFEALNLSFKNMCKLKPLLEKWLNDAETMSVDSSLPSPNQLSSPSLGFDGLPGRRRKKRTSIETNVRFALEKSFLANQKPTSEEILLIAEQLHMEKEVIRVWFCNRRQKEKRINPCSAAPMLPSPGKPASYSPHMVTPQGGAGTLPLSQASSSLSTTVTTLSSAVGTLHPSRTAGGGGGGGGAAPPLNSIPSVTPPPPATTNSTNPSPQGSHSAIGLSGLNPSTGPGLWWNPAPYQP
UniProt Q13950: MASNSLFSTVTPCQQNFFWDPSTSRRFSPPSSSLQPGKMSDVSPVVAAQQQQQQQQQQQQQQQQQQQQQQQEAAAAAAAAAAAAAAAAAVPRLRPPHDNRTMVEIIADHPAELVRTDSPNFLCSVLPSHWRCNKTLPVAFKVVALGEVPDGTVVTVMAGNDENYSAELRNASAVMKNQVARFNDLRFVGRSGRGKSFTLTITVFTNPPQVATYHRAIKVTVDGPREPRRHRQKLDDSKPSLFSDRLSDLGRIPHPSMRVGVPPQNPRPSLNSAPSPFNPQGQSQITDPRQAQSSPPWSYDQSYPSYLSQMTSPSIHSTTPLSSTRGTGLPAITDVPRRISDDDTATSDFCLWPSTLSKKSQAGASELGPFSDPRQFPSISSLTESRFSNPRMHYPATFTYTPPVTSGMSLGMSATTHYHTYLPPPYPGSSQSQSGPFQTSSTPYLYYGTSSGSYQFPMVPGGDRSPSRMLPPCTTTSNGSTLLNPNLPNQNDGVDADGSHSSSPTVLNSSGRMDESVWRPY
UniProt Q01196: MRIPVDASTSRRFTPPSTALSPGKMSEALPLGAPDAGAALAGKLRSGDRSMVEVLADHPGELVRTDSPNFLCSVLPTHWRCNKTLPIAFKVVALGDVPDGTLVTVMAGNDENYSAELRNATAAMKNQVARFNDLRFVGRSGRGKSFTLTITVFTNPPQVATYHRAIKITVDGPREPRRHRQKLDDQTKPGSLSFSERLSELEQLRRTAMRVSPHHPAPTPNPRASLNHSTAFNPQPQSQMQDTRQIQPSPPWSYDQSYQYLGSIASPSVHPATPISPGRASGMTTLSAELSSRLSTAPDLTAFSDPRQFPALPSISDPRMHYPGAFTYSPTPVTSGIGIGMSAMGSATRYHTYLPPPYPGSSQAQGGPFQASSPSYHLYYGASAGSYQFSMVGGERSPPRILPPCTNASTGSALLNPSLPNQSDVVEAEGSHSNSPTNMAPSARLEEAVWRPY

Target: POU class 2 homeobox 2 (POU2F2) (human (endogenous in U266 and OPM-2)) (UniProt P09086)
Test: co-IP; U266 and OPM-2 cell lysates incubated overnight at 4 °C with 5 µg anti-POU2F2 (sc-377475X) or mouse IgG, protein A/G magnetic beads 2 h, four PBST washes, western blot for POU2F2, RUNX1, RUNX2, histone H3

| binding | Substance |
| --- | --- |
| binds | RUNX2 (from UniProt Q13950 1-521) |
| binds | RUNX1 (from UniProt Q01196 1-453) |
